# Measured values from publication PMC5414174, “DNA replication licensing factor Cdc6 and Plk4 kinase antagonistically regulate centrosome duplication via Sas-6” (Nature Communications, 2017).
# Results are given in words; binding and its absence hold for the method and conditions named. In cells and extracts the contact can be indirect. Some binding calls cover weakened binding; strength is not graded here. Sequences can lack the tags named with a protein.
# T1: GFP-tagged Cdc6 WT (human) (UniProt Q99741)
# T1 sequence: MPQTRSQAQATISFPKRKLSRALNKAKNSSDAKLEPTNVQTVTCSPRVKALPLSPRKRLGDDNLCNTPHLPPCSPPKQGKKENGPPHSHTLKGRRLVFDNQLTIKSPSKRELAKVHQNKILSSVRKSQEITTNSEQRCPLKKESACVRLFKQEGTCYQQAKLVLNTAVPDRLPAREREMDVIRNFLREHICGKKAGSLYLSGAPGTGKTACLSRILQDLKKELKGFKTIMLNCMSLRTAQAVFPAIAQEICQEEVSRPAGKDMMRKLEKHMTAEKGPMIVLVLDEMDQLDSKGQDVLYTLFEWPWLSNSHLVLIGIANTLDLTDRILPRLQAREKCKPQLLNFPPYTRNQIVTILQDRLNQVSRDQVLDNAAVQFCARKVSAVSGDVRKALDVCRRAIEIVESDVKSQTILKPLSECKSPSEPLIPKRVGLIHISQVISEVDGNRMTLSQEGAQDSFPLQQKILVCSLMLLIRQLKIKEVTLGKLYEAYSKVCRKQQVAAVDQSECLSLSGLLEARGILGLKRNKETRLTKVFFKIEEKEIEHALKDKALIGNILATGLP
# T2: GFP-tagged Cdc6 truncate amino acids 179–407 (human) (UniProt Q99741)
# T2 sequence: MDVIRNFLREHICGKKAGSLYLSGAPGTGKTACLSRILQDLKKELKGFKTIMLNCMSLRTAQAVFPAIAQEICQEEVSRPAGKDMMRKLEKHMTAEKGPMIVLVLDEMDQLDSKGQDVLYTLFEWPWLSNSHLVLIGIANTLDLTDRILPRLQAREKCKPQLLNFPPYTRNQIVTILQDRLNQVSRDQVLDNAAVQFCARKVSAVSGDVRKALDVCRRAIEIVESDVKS
# T3: GFP-tagged Cdc6 truncate amino acids 407–560 (human) (UniProt Q99741)
# T3 sequence: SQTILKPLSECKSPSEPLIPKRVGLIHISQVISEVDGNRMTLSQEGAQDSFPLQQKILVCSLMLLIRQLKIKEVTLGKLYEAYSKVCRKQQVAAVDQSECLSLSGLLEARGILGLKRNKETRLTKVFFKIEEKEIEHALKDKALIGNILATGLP
# T4: GFP-tagged Cdc6 truncate amino acids 1–179 (human) (UniProt Q99741)
# T4 sequence: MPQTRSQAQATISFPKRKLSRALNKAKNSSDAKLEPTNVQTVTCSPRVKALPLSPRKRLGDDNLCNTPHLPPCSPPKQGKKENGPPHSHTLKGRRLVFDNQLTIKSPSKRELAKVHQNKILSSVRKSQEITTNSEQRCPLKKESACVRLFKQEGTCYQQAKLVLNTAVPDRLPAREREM
# B1: Myc-tagged Plk4 (enzyme, UniProt O00444 1-970)
# chain: MATCIGEKIEDFKVGNLLGKGSFAGVYRAESIHTGLEVAIKMIDKKAMYKAGMVQRVQNEVKIHCQLKHPSILELYNYFEDSNYVYLVLEMCHNGEMNRYLKNRVKPFSENEARHFMHQIITGMLYLHSHGILHRDLTLSNLLLTRNMNIKIADFGLATQLKMPHEKHYTLCGTPNYISPEIATRSAHGLESDVWSLGCMFYTLLIGRPPFDTDTVKNTLNKVVLADYEMPSFLSIEAKDLIHQLLRRNPADRLSLSSVLDHPFMSRNSSTKSKDLGTVEDSIDSGHATISTAITASSSTSISGSLFDKRRLLIGQPLPNKMTVFPKNKSSTDFSSSGDGNSFYTQWGNQETSNSGRGRVIQDAEERPHSRYLRRAYSSDRSGTSNSQSQAKTYTMERCHSAEMLSVSKRSGGGENEERYSPTDNNANIFNFFKEKTSSSSGSFERPDNNQALSNHLCPGKTPFPFADPTPQTETVQQWFGNLQINAHLRKTTEYDSISPNRDFQGHPDLQKDTSKNAWTDTKVKKNSDASDNAHSVKQQNTMKYMTALHSKPEIIQQECVFGSDPLSEQSKTRGMEPPWGYQNRTLRSITSPLVAHRLKPIRQKTKKAVVSILDSEEVCVELVKEYASQEYVKEVLQISSDGNTITIYYPNGGRGFPLADRPPSPTDNISRYSFDNLPEKYWRKYQYASRFVQLVRSKSPKITYFTRYAKCILMENSPGADFEVWFYDGVKIHKTEDFIQVIEKTGKSYTLKSESEVNSLKEEIKMYMDHANEGHRICLALESIISEEERKTRSAPFFPIIIGRKPGSTSSPKALSPPPSVDSNYPTRERASFNRMVMHSAASPTQAPILNPSMVTNEGLGLTTTASGTDISSNSLKDCLPKSAQLLKSVFVKNVGWATQLTSGAVWVQFNDGSQLVVQAGVSSISYTSPNGQTTRYGENEKLPDYIKQKLQCLSSILLMFSNPTPNFH
# Tests used:
# Assay in all cases: co-IP; co-transfected HEK293 cells, total cell extract, IP with GFP antibody on protein A Sepharose, 20 mM Tris, 125 mM NaCl, 0.5% NP-40, pH 7.5, 2 h at 4 °C; western blot with Myc and GFP antibodies; in Fig. 4d cells released into S phase
# [1] = biological target: T1, GFP-tagged Cdc6 WT (human)
# [2] = biological target: T2, GFP-tagged Cdc6 truncate amino acids 179–407 (human)
# [3] = biological target: T3, GFP-tagged Cdc6 truncate amino acids 407–560 (human)
# [4] = biological target: T4, GFP-tagged Cdc6 truncate amino acids 1–179 (human)
binder,measurement,setting,value
B1,binding,[1],binds
same,binding,[2],binds
same,binding,[3],no binding
same,binding,[4],binds
